Measured values as given in PubChem BioAssay AID540276 (National Center for Advancing Translational Sciences (NCATS), 2011).
Values joined by “and” are separate entries in the source; they are usually repeats but may differ in a detail not shown here. Identical values can stand only once. Screen size: about 300,000 compounds; about 5,400 (1.8%) were called active. The shares of active, inactive and inconclusive entries below differ from those in the screen. Calls come from the whole dose curve; tested in HEK293 cells. A potency beside an inconclusive call is a rough fit, not a confirmed value. More than one record can exist for a structure, and the calls need not agree.
% is set by controls: 0 for no effect and ±100 for the full control effect; potency is the fitted concentration of half-maximal effect.

Experiment: qHTS for inhibitors of binding or entry into cells for Marburg Virus
Conditions: Marburg virus pseudotyped entry inhibition, cell reporter; activity change, negative = inhibition: at 37.8 µM (top of the series) unless noted
With `O=C(Oc1ccc(C(=S)N2CCOCC2)cc1)c1ccccc1` the Potency was inconclusive: 10 µM [activator, partial curve, poor fit]. For `c1ccc(OCCOCCN2CCN(C(c3ccccc3)c3ccccc3)CC2)cc1`, the Potency was inconclusive: 14.1 µM [inhibitor, partial curve, poor fit]. With `S=C(NCC1CCCO1)N1CCN(c2ccccc2)CC1` (centres undefined) the Potency was inconclusive: 5.01 µM [activator, single point]. For `CC(=O)c1c(C)[nH]c(C(=O)COC(=O)CCCOc2ccccc2)c1C`, the “activity change, negative = inhibition” value was inactive: 10.5% [at 46.1 µM]. For `NC(=O)C1(N2CCCCC2)CCN(c2nc(-c3ccccc3)cs2)CC1`, the Potency was inconclusive: 35.5 µM [inhibitor, partial curve, poor fit]. With `NC1=C([N+](=O)[O-])C(c2ccccc2)C2=C(CCCC2=O)O1` (centres undefined) the Potency was inconclusive: 18.4 µM [activator, single point]. For `Cc1c([N+](=O)[O-])cc(C(=O)Nc2ccc(NC(=O)c3ccco3)cc2)cc1[N+](=O)[O-]`, the “activity change, negative = inhibition” value was inactive: 9.79% [at 46.1 µM]. For `O=C(Nc1cccnc1)c1ccc(COc2ccccc2Br)o1`, the Potency was inconclusive: 9.2 µM [inhibitor, partial curve]. For `c1ccc(C2=NC(c3ccccc3)N=C(c3ccccc3)N2)cc1`, the Potency was inconclusive: 10 µM [inhibitor, partial curve]. With `CCOC(=O)c1c(-c2ccc(C)cc2)csc1/N=C/N(C)C` the Potency was inconclusive: 9.2 µM [inhibitor, partial curve]. For `Brc1cccc(-c2nnn3c2nc(NCc2ccc4c(c2)OCO4)c2ccccc23)c1`, the Potency was inconclusive: 11.2 µM [activator, partial curve, poor fit]. With `Cc1nn(C)c(Oc2ccccc2)c1CCNC(=O)CC(C)C` the “activity change, negative = inhibition” value was inactive: -18.1% [at 46.1 µM]. With `CCC(=O)Nc1cc(C(=O)O)ccc1Sc1ccc(Cl)cc1` the Potency was inconclusive: 2.82 µM [activator, full curve, poor fit]. For `O=C1c2ccccc2-c2ccc(C(=O)N3CCCCC3)cc21`, the Potency was inconclusive: 6.31 µM [activator, single point]. With `CC1(C)CC(=O)C(C(O)c2ccc([N+](=O)[O-])cc2)C(C)(C)N1` (centres undefined) the Potency was inconclusive: 7.08 µM [inhibitor, partial curve]. In the case of `COc1cc(NC(=S)N2c3ccccc3CC2C)cc(OC)c1` (centres undefined), the Potency was inconclusive: 8.91 µM [activator, partial curve, poor fit]. With `Cc1cccc(NS(=O)(=O)c2cccc(C(=O)NCC3(N4CCCCC4)CCCCC3)c2)c1` the Potency was inconclusive: 10 µM [inhibitor, partial curve]. For `N#C/C(=C\c1cccnc1)C(=O)NC1CCCCC1`, the “activity change, negative = inhibition” value was inactive: 6.44%. For `COC(=O)CCCC1=CC2=C(c3ccccc3)C(=O)C(C)(OC(=O)C3CCCC3)C(=O)C2=CN1c1ccccc1` (centres undefined), the Potency was “inactive”. In the case of `Cc1ccc(C)c(S(=O)(=O)N2CCCC2CNC(=O)C(=O)NCc2ccco2)c1` (centres undefined), the Potency was inconclusive: 5.62 µM [activator, single point]. In the case of `NC(=O)NC(=O)C(Nc1ccc2c(c1)CCC2)c1ccccc1` (centres undefined), the Potency was inconclusive: 12.6 µM [activator, single point]. For `O=C(O)C1C2C=CC(C2)C1C(=O)OC1CC2CCC1C2` (centres undefined), the “activity change, negative = inhibition” value was inactive: 8.74%. In the case of `CCOC(=O)Cc1cc(-c2ccc(O)cc2)nc2ccc3ccccc3c12`, the Potency was inconclusive: 20.6 µM [inhibitor, single point]. In the case of `Cc1sc2nc(SCc3nc4ccccc4[nH]3)n(Cc3ccco3)c(=O)c2c1C`, the Potency was inconclusive: 6.31 µM [inhibitor, full curve, poor fit]. In the case of `CCOC(=O)c1cc(-c2ccc(OC)cc2)nc2c1c(C)nn2CCC(N)=S`, the Potency was inconclusive: 25.1 µM [inhibitor, single point]. In the case of `O=C(Nc1ccc(F)cc1)Nc1nnc(Cc2ccccc2F)s1`, the “activity change, negative = inhibition” value was inactive: -16%. In the case of `CC1Cc2ccccc2N1C(=O)Cn1cnc2ccccc21` (centres undefined), the Potency was inconclusive: 2 µM [inhibitor, partial curve, poor fit]. For `CN1CCc2cc(O)c(O)cc2C(c2ccccc2)C1` (centres undefined), the Potency was “inactive and active: 12.6 µM”. For `O=C(Nc1ccc(-c2cn3ccsc3n2)cc1)c1ccc(F)c(S(=O)(=O)N2CCOCC2)c1`, the Potency was “inactive”. For `COC(=O)c1cc2occc2n1Cc1nc(-c2ccccc2)oc1C`, the Potency was inconclusive: 0.891 µM [inhibitor, partial curve, poor fit]. With `O=C(CO/N=C/c1ccc(OC(F)F)cc1)NCc1ccco1` the Potency was inconclusive: 22.4 µM [inhibitor, single point]. In the case of `Cc1c(CCNC=O)cc(C)c2c3c(oc12)CCCC3`, the Potency was inconclusive: 7.08 µM [activator, partial curve, poor fit]. In the case of `COc1ccc(Cn2nnnc2CN2CCC(O)(c3ccccc3F)CC2)cc1`, the Potency was inconclusive: 1.41 µM [inhibitor, partial curve, poor fit]. With `CCN(C(=O)COC(=O)C1=COCCO1)c1c(N)n(Cc2ccccc2)c(=O)[nH]c1=O` the Potency was inconclusive: 3.55 µM [activator, single point]. With `Cc1ccsc1/C=N/n1c(C2CCCCC2)n[nH]c1=S` the Potency was inconclusive: 0.282 µM [activator, full curve, poor fit]. For `COc1cccc(NC(=O)COC(=O)c2cc(S(=O)(=O)N3CCOCC3)ccc2C)c1`, the Potency was active: 17.8 µM. With `CCn1c(CCC(=O)Nc2cc(F)ccc2C)nc2cc(S(=O)(=O)N(C)C)ccc21` the Potency was “inactive”. For `CCN1C(=O)c2ccc(C(=O)Nc3nccs3)cc2C1=O`, the “activity change, negative = inhibition” value was inactive: 3.25%. In the case of `C=CCCC(=O)N1CCCC(Cc2cccc(Cl)c2)(C(=O)OCC)C1` (centres undefined), the Potency was inconclusive: 20 µM [inhibitor, partial curve, poor fit]. For `CCCCN1/C(=C/c2ccc3ccccc3[n+]2CC)Sc2ccccc21`, the Potency was active: 5.62 µM. With `COc1ccc(C(C(=O)NC2CCCC2)N(C(=O)c2snc(C(N)=O)c2N)c2ccccc2OC)cc1OC` (centres undefined) the Potency was inconclusive: 0.562 µM [inhibitor, full curve, poor fit]. With `CC(NC(=O)C1CCN(S(=O)(=O)Cc2ccccc2)CC1)c1ccccc1` (centres undefined) the Potency was inconclusive: 4.47 µM [activator, partial curve, poor fit]. With `O=C(Nc1ccc2c(c1)OCO2)c1cccc(Cl)c1` the Potency was inconclusive: 35.5 µM [inhibitor, single point]. With `Cc1cc(NC(=O)c2ccco2)ccc1NC(=O)c1ccco1` the “activity change, negative = inhibition” value was inactive: 4.99% [at 46.1 µM]. With `CC(=O)c1ccc(OCCCC(=O)Nc2cc(S(=O)(=O)N3CCCCC3)ccc2C)cc1` the “activity change, negative = inhibition” value was inactive: 7.74% [at 46.1 µM]. In the case of `CCc1ccc(-n2cc(-c3ccc([N+](=O)[O-])cc3)[nH]c2=S)cc1`, the “activity change, negative = inhibition” value was inactive: 11.4%. With `CCCN(Cc1ccccc1)C(=S)Nc1cccc(C(F)(F)F)c1` the Potency was inconclusive: 20.6 µM [inhibitor, partial curve, poor fit]. For `Cc1ccc(S(=O)(=O)NCc2ccncc2)cc1C`, the Potency was inconclusive: 0.891 µM [inhibitor, full curve, poor fit]. With `CCOC(=O)N1CCC(Nc2c(-c3ccc(C)cc3)c(=O)c2=O)CC1` the “activity change, negative = inhibition” value was inactive: -1.74%. In the case of `Cc1c(C(=O)NCc2ccccn2)oc2ccc(Br)cc12`, the “activity change, negative = inhibition” value was inactive: 21.3%. With `c1ccc2c(c1)CCOC2CNCCCN1CCCCC1` (centres undefined) the Potency was inconclusive: 6.31 µM [inhibitor, full curve, poor fit]. With `CC12CCC(O)CC1CCC1C2CCC2(C)C(C3=CC(=O)OC3)C(O)CC12O` (centres undefined) the Potency was active: 0.631 µM. For `CN(C)CCCN(C(=O)C1=COCCO1)c1nc2ccc(Br)cc2s1`, the Potency was inconclusive: 12.6 µM [inhibitor, single point]. With `Cn1c(=O)c2c(nc(CN3CCOCC3)n2CCN2CCOCC2)n(C)c1=O` the Potency was inconclusive: 0.259 µM [activator, full curve, poor fit]. With `CN1CCCCCC1C(=O)N1CCC(N2CCC(C(=O)N3CCOCC3)CC2)CC1` (centres undefined) the “activity change, negative = inhibition” value was inactive: 10.4% [at 46.1 µM]. For `Cc1ccc(S(=O)(=O)N2CCCCC2)cc1NC(=O)CSc1ccc2c(c1)OCCO2`, the Potency was inconclusive: 25.1 µM [inhibitor, single point]. With `Cc1ccc(C(C(=O)NCc2ccco2)N(C(=O)CNC(=O)c2cccs2)c2ccc(C)cc2C)cc1` (centres undefined) the Potency was inconclusive: 1.03 µM [inhibitor, full curve, poor fit]. In the case of `COc1ccccc1CNC(=O)c1ccc(OC(C)C)cc1`, the “activity change, negative = inhibition” value was inactive: -8.63% [at 46.1 µM]. For `O=C(NC(=S)N1CCN(c2ccc(F)cc2)CC1)C12CC3CC(CC(C3)C1)C2`, the “activity change, negative = inhibition” value was inactive: 0.773%. For `CC(C)CCNC(=O)CN(C)S(=O)(=O)c1cccc2nsnc12`, the Potency was inconclusive: 1.46 µM [inhibitor, partial curve, poor fit]. For `Cc1ccc(S(=O)(=O)NC2CC(C)(C)NC(C)(C)C2)c(C)c1C`, the “activity change, negative = inhibition” value was inactive: -29.7%. For `CC(=O)c1c(C)oc2ccc(N(C(C)=O)S(=O)(=O)c3cccc4cccnc34)cc12`, the Potency was inconclusive: 6.31 µM [inhibitor, partial curve, poor fit]. In the case of `CC(C)=NNc1nc2sc3c(c2c(=O)[nH]1)CC(C)(C)OC3`, the “activity change, negative = inhibition” value was inactive: -4.46%. For `Cc1ccc(-n2nc(-c3ccccc3)cc2Nc2ccccc2N)cc1`, the activity change, negative = inhibition was inconclusive: 1.14% [activator]. In the case of `Cc1ccccc1S(=O)(=O)Cc1ccc(C(=O)N2CCN(c3cccc(Cl)c3)CC2)o1`, the Potency was inconclusive: 6.31 µM [inhibitor, partial curve, poor fit]. For `COc1ccc(-n2ncc3c(NCC4CCCO4)ncnc32)cc1` (centres undefined), the Potency was inconclusive: 7.94 µM [inhibitor, partial curve, poor fit]. With `COc1ccc(C(C)NC(=S)NC2CCCC2)cc1OC` (centres undefined) the “activity change, negative = inhibition” value was inactive: -4.2%. For `COc1ccc(NC(=O)C2=CC(c3ccco3)=NS(=O)(=O)N2C)cc1`, the “activity change, negative = inhibition” value was inactive: 12.7% [at 46.1 µM]. In the case of `CCS(=O)(=O)N1Cc2ccccc2CC1C(=O)N(C)CC(=O)Nc1ccc(F)c(F)c1F` (centres undefined), the “activity change, negative = inhibition” value was inactive: -28.8%.
